Earlier results, collected in publication PMC7248311, “Bisphenol A Diglycidyl Ether (BADGE) and Bisphenol Analogs, but Not Bisphenol A (BPA), Activate the CatSper Ca^2+ Channel in Human Sperm” (Frontiers in Endocrinology, 2020).

Set-up: method as in PMID 30408212
Conditions: human serum ref 50; cited from earlier work

Row | Compound | Reported maximal human serum concentration [µM]
1 | CC(C)(c1ccc(OCC2CO2)cc1)c1ccc(OCC2CO2)cc1 (stereo not drawn) [BADGE, Bisphenol A diglycidyl ether] | 3.45
2 | Oc1ccc(C(c2ccc(O)cc2)(C(F)(F)F)C(F)(F)F)cc1 [BPAF, Bisphenol AF] | 0.05
3 | CCC(C)(c1ccc(O)cc1)c1ccc(O)cc1 [BPB, Bisphenol B] | 0.59
